# These are yes or no findings as the source states them, for the method shown. Binding seen in cells or lysates may run through a third protein. Some results given as binding are weak or reduced against the parent protein; the word gives no strength.
# By UniProt entry, the sequences of proteins in these tests, tags left out.
# UniProt P08047: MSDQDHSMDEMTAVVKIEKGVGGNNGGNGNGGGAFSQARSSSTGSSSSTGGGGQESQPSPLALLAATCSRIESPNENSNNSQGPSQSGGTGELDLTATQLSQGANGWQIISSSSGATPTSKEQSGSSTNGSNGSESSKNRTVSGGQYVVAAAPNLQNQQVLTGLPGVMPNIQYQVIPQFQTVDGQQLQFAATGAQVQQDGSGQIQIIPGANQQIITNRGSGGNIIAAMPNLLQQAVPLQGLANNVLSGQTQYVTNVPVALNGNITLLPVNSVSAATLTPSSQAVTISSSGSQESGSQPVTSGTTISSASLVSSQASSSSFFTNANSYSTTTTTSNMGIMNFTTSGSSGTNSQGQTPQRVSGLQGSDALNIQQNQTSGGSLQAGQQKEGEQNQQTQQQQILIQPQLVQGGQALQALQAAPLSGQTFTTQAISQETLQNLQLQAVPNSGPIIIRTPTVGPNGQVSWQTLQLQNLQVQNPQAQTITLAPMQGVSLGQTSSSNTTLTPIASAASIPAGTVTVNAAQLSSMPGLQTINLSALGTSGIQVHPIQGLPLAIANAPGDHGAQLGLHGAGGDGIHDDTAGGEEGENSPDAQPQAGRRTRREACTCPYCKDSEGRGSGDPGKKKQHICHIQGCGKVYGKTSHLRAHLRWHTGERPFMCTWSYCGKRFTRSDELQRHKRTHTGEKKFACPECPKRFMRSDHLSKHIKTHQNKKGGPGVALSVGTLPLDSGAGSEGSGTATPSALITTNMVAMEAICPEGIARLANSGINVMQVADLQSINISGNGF
# UniProt O00506: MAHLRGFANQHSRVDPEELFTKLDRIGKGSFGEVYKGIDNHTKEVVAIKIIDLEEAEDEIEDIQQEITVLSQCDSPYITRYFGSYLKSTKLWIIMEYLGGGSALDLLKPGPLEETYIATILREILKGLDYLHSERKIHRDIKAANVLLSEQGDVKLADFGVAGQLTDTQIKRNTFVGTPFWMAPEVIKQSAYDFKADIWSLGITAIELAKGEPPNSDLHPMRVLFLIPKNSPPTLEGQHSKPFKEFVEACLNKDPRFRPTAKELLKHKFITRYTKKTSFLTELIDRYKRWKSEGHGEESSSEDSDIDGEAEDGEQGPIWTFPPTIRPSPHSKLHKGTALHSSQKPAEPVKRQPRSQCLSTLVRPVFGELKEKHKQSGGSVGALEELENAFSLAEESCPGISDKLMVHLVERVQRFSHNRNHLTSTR
# UniProt P38936: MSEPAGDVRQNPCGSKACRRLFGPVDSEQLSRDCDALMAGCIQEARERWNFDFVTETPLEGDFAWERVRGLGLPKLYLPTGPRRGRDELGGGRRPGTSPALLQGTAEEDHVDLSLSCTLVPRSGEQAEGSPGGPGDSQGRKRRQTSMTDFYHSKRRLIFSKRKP
# Tests used:
# HA-SP-1 = HA-SP-1 (UniProt P08047); assay: co-IP; lysates (200 ug) of transfected cells in NET-NL buffer (50 mM Tris pH 7.5, 5 mM EDTA, 150 mM NaCl, 1 mM DTT, 0.01% NP-40); immunoprecipitation with anti-hYSK1 or anti-SP-1 overnight at 4 C, protein A/G-agarose; western blot for Myc, V5, HA
# V5-hYSK1 (human) = V5-hYSK1 (human) (UniProt O00506); assay: as above
# GST-hYSK1 (human) = GST-hYSK1 (human) (UniProt O00506); assay: pull-down; GST or GST-YSK1 bound to Sepharose beads incubated with in vitro translated 35S-Met-labeled p21; washed three times; 15% SDS-PAGE, autoradiography; only the target purified
Substance,binding (HA-SP-1),binding (V5-hYSK1 (human)),binding (GST-hYSK1 (human))
V5-hYSK1 (from UniProt O00506 1-426) (enzyme),no binding,,
HA-SP-1 (from UniProt P08047 1-785),,no binding,
35S-labeled p21^WAF1/Cip1 (from UniProt P38936 1-164),,,binds
Myc-p21^WAF1/Cip1 (from UniProt P38936 1-164),binds,binds,

# Reference: PMC6359055
